Results deposited as PubChem BioAssay AID1159578 (Peter MacCallum Cancer Centre, 2015).
Test: 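Genome-wide hunt for genes controlling movement of lymphatic endothelial cells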 (primary screen). System: human lymphatic endothelial cells. Reagents: siRNA pool against human genes, 40 nM. Duration: 48 h after transfection. Measured: 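High-content imaging of dye-stained cells in a scratch assay measures filled wound area and nuclei per well; duplicate means given as ratio to mock and robust z-score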. Direction: migration robust z-score: higher = faster migration into the scratch; nuclei per well: higher = more cells in the well. Active means: 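Migration changed when robust z exceeds 2 or falls below -2 and mean nuclei number is at least 3300; otherwise not called changed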. Meaning of the calls: active = migration changed; inactive = no migration change, or too few cells.
Here is one part, drawn at random, of about 18,000 deposited reagents. In the full data, about 1,030 (5.7%) are marked active. 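Inactive calls also include pools with fewer than 3300 nuclei, whose migration was not assessed.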 Raw values are not corrected between plates. A number with no mark means an inactive call. Not all columns of the deposit are shown. No sequences are given here.

What did the screen give for SARDH?
migration robust z-score: -0.8; nuclei per well, duplicate mean: 5947

For ETFB, what was measured?
migration robust z-score: 0.8; nuclei per well, duplicate mean: 6377

For PPP4R1, what does the deposit list?
migration robust z-score: 0.86; nuclei per well, duplicate mean: 5554

Which result is listed for YIPF3?
migration robust z-score: -0.9; nuclei per well, duplicate mean: 5155

For PTPRT, how do the results read?
migration robust z-score: 1.06; nuclei per well, duplicate mean: 6398

For SLC9C1, what does the deposit list?
migration robust z-score: 0.04; nuclei per well, duplicate mean: 5922

With CREB3L2, what was measured?
migration robust z-score: -1.99; nuclei per well, duplicate mean: 4708

With IFNA8, how do the results read?
migration robust z-score: 0.97; nuclei per well, duplicate mean: 5453

Single entries from the entries so far:
Under “nuclei per well, duplicate mean”, SARDH shows 5947
Value of CREB3L2 under “nuclei per well, duplicate mean”: 4708
Under “migration robust z-score”, SLC9C1 shows 0.04

More reagents:
With IFNA2, what does the deposit list?
migration robust z-score: -0.02; nuclei per well, duplicate mean: 5816

For ZC3H11A, what does the deposit list?
migration robust z-score: -0.13; nuclei per well, duplicate mean: 5906

For NGB, what does the deposit list?
migration robust z-score: 0.8; nuclei per well, duplicate mean: 5918

What did the screen give for RBM42?
migration robust z-score: -0.7; nuclei per well, duplicate mean: 6158

For GTF2A1L, how do the results read?
migration robust z-score: -0.08; nuclei per well, duplicate mean: 6133

For IL11, what does the deposit list?
migration robust z-score: 0.08; nuclei per well, duplicate mean: 5156

Which result is listed for TPSD1?
migration robust z-score: 0.78; nuclei per well, duplicate mean: 6292

How did the screen score TMC4?
migration robust z-score: -0.92; nuclei per well, duplicate mean: 5733

With MED10, what was measured?
migration robust z-score: 0.2; nuclei per well, duplicate mean: 6152

Which result is listed for NDUFC2?
migration robust z-score: -0.44; nuclei per well, duplicate mean: 5495

Which result is listed for KRT23?
migration robust z-score: 0.99; nuclei per well, duplicate mean: 6660

What did the screen give for SREBF2?
migration robust z-score: 0.18; nuclei per well, duplicate mean: 7003

For ETFBKMT, what does the deposit list?
migration robust z-score: -1.12; nuclei per well, duplicate mean: 4434
